PubChem BioAssay AID652243, Drosophila RNAi Screening Center, 2013
Assay: 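Knock-downs that decrease or increase androgen receptor reporter signal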 (primary screen). Cell system: Drosophila S2R+ cells. Reagents: long dsRNA against Drosophila genes. Time to read-out: 72 h (48 h, then 24 h hormone). Challenge: synthetic androgen R1881 at 10 nM for 24 h. Measurement: 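Per-well raw luminescence of the androgen-driven firefly reporter and of the Renilla control, two replicates each, without normalisation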. Scale: firefly reporter light: higher = more light from androgen-responsive reporter; Renilla control light: higher = more constitutive control signal (cell number, transfection). Rule for the call: 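Hit when the log firefly-to-Renilla ratio dropped or increased by a fixed fold versus the mean of GFP or LacZ controls across duplicate plates; lowering cut given as 1.5 and as 3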. Calls: active = hit: reporter lowered or raised; inactive = no hit.
The deposit covers about 24,000 reagents; below is a random part of those that have a named target and a result. Of all reagents, 246 (1%) were called active. 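Plates not normalised; calls are printed but the firefly/Renilla ratio behind them is not deposited; fold cut for lowering reported inconsistently.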 Raw values are not corrected between plates. Entries without a mark were called inactive. A plus sign joins genes that one reagent is predicted to hit. Reagent sequences are not shown. The record does not give: the amount of reagent.

Trax (GeneID 41871) [DRSC15709] showed firefly reporter light, replicate 1 = 82617; firefly reporter light, replicate 2 = 50850; Renilla control light, replicate 1 = 4.06e5; Renilla control light, replicate 2 = 4.73e5.
For CG6178 (GeneID 42867) [DRSC15984] the deposit lists firefly reporter light, replicate 1 = 89918; firefly reporter light, replicate 2 = 68961; Renilla control light, replicate 1 = 5.57e5; Renilla control light, replicate 2 = 6.35e5.
CG12523 (GeneID 39216) [DRSC09895] scored firefly reporter light, replicate 1 = 2.01e5; firefly reporter light, replicate 2 = 2.69e5; Renilla control light, replicate 1 = 2.27e6; Renilla control light, replicate 2 = 2.38e6.
CG12523 (GeneID 39216) [DRSC25151] gave firefly reporter light, replicate 1 = 7.15e5; firefly reporter light, replicate 2 = 7.25e5; Renilla control light, replicate 1 = 9.17e5; Renilla control light, replicate 2 = 1.04e6.
CG33061 (GeneID 318838) [DRSC09938] gave firefly reporter light, replicate 1 = 2.97e5; firefly reporter light, replicate 2 = 3.07e5; Renilla control light, replicate 1 = 2.45e6; Renilla control light, replicate 2 = 1.85e6.
After knock-down of CG33061 (GeneID 318838) [DRSC22897] the results were firefly reporter light, replicate 1 = 8.60e5; firefly reporter light, replicate 2 = 1.13e6; Renilla control light, replicate 1 = 9.44e5; Renilla control light, replicate 2 = 1.46e6.
Knock-down of reb (GeneID 36275) [DRSC06308] came out at: firefly reporter light, replicate 1 = 3.47e5; firefly reporter light, replicate 2 = 2.45e5; Renilla control light, replicate 1 = 1.92e6; Renilla control light, replicate 2 = 1.83e6.

Entries above whose target name starts with C or c (5):
CG6178 (GeneID 42867) [DRSC15984]: firefly reporter light, replicate 1 = 89918; firefly reporter light, replicate 2 = 68961; Renilla control light, replicate 1 = 5.57e5; Renilla control light, replicate 2 = 6.35e5
CG12523 (GeneID 39216) [DRSC09895]: firefly reporter light, replicate 1 = 2.01e5; firefly reporter light, replicate 2 = 2.69e5; Renilla control light, replicate 1 = 2.27e6; Renilla control light, replicate 2 = 2.38e6
CG12523 (GeneID 39216) [DRSC25151]: firefly reporter light, replicate 1 = 7.15e5; firefly reporter light, replicate 2 = 7.25e5; Renilla control light, replicate 1 = 9.17e5; Renilla control light, replicate 2 = 1.04e6
CG33061 (GeneID 318838) [DRSC09938]: firefly reporter light, replicate 1 = 2.97e5; firefly reporter light, replicate 2 = 3.07e5; Renilla control light, replicate 1 = 2.45e6; Renilla control light, replicate 2 = 1.85e6
CG33061 (GeneID 318838) [DRSC22897]: firefly reporter light, replicate 1 = 8.60e5; firefly reporter light, replicate 2 = 1.13e6; Renilla control light, replicate 1 = 9.44e5; Renilla control light, replicate 2 = 1.46e6

Additional records follow:
With knock-down of cerv (GeneID 32492) [DRSC19681], the screen gave firefly reporter light, replicate 1 = 3.17e5; firefly reporter light, replicate 2 = 3.19e5; Renilla control light, replicate 1 = 1.67e6; Renilla control light, replicate 2 = 2.57e6.
cerv (GeneID 32492) [DRSC25320] scored firefly reporter light, replicate 1 = 7.41e5; firefly reporter light, replicate 2 = 7.21e5; Renilla control light, replicate 1 = 7.59e5; Renilla control light, replicate 2 = 7.49e5.
After knock-down of CG14971 (GeneID 38429) [DRSC08430] the results were firefly reporter light, replicate 1 = 7.75e5; firefly reporter light, replicate 2 = 6.95e5; Renilla control light, replicate 1 = 1.30e6; Renilla control light, replicate 2 = 1.56e6.
Silencing of tomboy20 (GeneID 41285) [DRSC14913] resulted in: firefly reporter light, replicate 1 = 1.23e5; firefly reporter light, replicate 2 = 91351; Renilla control light, replicate 1 = 1.64e6; Renilla control light, replicate 2 = 1.31e6.
Knock-down of Sec24AB (GeneID 36025) [DRSC06478] resulted in: firefly reporter light, replicate 1 = 7.21e5; firefly reporter light, replicate 2 = 7.19e5; Renilla control light, replicate 1 = 2.18e6; Renilla control light, replicate 2 = 2.40e6.
Silencing of Sec24AB (GeneID 36025) [DRSC25940] came out at: firefly reporter light, replicate 1 = 3.31e5; firefly reporter light, replicate 2 = 3.66e5; Renilla control light, replicate 1 = 1.37e6; Renilla control light, replicate 2 = 1.13e6.
Against CG9270 (GeneID 35366) [DRSC03182] the deposit lists firefly reporter light, replicate 1 = 1.12e6; firefly reporter light, replicate 2 = 9.88e5; Renilla control light, replicate 1 = 3.35e6; Renilla control light, replicate 2 = 3.08e6.
After knock-down of CG41284 + CG42598 [DRSC37841] the results were firefly reporter light, replicate 1 = 8.71e5; firefly reporter light, replicate 2 = 1.09e6; Renilla control light, replicate 1 = 1.40e6; Renilla control light, replicate 2 = 1.97e6.
Silencing of CG42490 (retired record) (GeneID 8674118) [DRSC01649] resulted in: firefly reporter light, replicate 1 = 6.82e5; firefly reporter light, replicate 2 = 5.97e5; Renilla control light, replicate 1 = 1.59e6; Renilla control light, replicate 2 = 1.79e6.
Against CG42490 (retired record) (GeneID 8674118) [DRSC28297], the values are firefly reporter light, replicate 1 = 5.86e5; firefly reporter light, replicate 2 = 7.77e5; Renilla control light, replicate 1 = 1.22e6; Renilla control light, replicate 2 = 1.45e6.
For BaraA1 + BaraA2 [DRSC05417], the values are firefly reporter light, replicate 1 = 77565; firefly reporter light, replicate 2 = 48787; Renilla control light, replicate 1 = 2.49e5; Renilla control light, replicate 2 = 1.95e5.
Silencing of CG1690 (GeneID 36004) [DRSC06636] came out at: firefly reporter light, replicate 1 = 3.35e5; firefly reporter light, replicate 2 = 3.41e5; Renilla control light, replicate 1 = 1.93e6; Renilla control light, replicate 2 = 2.27e6.
CG43336 (GeneID 12798414) [DRSC15765] showed firefly reporter light, replicate 1 = 1.85e5; firefly reporter light, replicate 2 = 1.87e5; Renilla control light, replicate 1 = 3.26e6; Renilla control light, replicate 2 = 3.05e6.
For pdm2 (GeneID 34673) [DRSC02496] the deposit lists firefly reporter light, replicate 1 = 1.81e5; firefly reporter light, replicate 2 = 1.87e5; Renilla control light, replicate 1 = 1.02e6; Renilla control light, replicate 2 = 1.44e6.
Depletion of pdm2 (GeneID 34673) [DRSC03587] resulted in: firefly reporter light, replicate 1 = 1.44e5; firefly reporter light, replicate 2 = 1.78e5; Renilla control light, replicate 1 = 9.63e5; Renilla control light, replicate 2 = 1.22e6.
